# Measurements from PubChem BioAssay AID504861 (Broad Institute, 2011).
# The whole screen tested about 1,200 compounds, of which about 290 (24%) were called active. Another 3% or so got no clear call; they are omitted.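 How the source made its calls: active means compounds lowering cell viability signal with fitted half-maximal concentration at most ten times their highest tested concentration; inconclusive means flat fit with 30 to 70% signal loss, or poor fit; inactive means the rest.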 This is a selection; strong and weak results do not stand in their true shares. Results with a measured potency or affinity are listed apart.
# Assay: HEK293T cell viability reduction, dose response, cytotoxicity control for LMP1 NF-kB inhibitor project, CellTiter-Glo luminescence, cherry-picks (AID 504861)
# Conditions: CellTiter-Glo ATP luminescence, 48 h; at 26 µM (top of the series)
row,SMILES,"activity change, negative = cytotoxicity"
1,COc1ccc(C2CC(C(F)(F)F)n3ncc(C(=O)NCc4cccnc4)c3N2)cc1OC (configuration not stated),inactive: 31.2%
2,CCSc1nnc(NC(=O)CSc2nnc(-c3c[nH]c4ccccc34)n2CC)s1,inactive: -8.74%
3,O=S(=O)(N/N=C/c1ccccc1F)c1ccccc1,inactive: 10.4%
4,CC(C)(C)c1ccc(Cn2c(=O)cnc3ccccc32)cc1,inactive: 0.777%
5,CN1OC[C@@H]2CN[C@H](c3ccc(-c4cc5ccccc5o4)cc3)C[C@@H]21,inactive: 0.567%
6,O=C(C1CCCCC1)N1CCN(c2ncccn2)CC1,inactive: 8.2%
7,CC(C)C(=O)Nc1ccc(C(=O)N/N=C/c2cc(Br)cc(Br)c2O)cc1,inactive: 4.48%
8,CCCCCCc1cc2cc(-c3nnc(-c4ccccc4)o3)c(=O)oc2cc1O,inactive: 5.44%
9,COc1ccccc1N1CCN(C(=O)CCC(=O)N2CCN(c3ccc(F)cc3)CC2)CC1,inactive: -2.9%
10,O=c1c([N+](=O)[O-])cn(Cc2ccccc2)c(=O)n1Cc1ccccc1,inactive: 2.12%
11,COCCn1c(SCC(=O)NCc2ccco2)nnc1-c1c[nH]c2ccccc12,inactive: 2.05%
12,C[C@@]12C(=O)N(Cc3ccccc3)CC(=O)N1[C@H](/C=C/c1ccccc1)[C@@H]1C(=O)N(c3ccccc3)C(=O)[C@@H]12,inactive: 5.94%
13,Cc1cc(C)nc(SCC(=O)OCN2C(=O)c3ccccc3C2=O)n1,inactive: 3.05%
14,COc1ccc(/C=N/NC(=O)COc2ccccc2-c2ccccc2)cc1,inactive: -5.26%
15,CN(C)CC(C)(C)CNS(=O)(=O)c1ccc(OC(F)(F)F)cc1,inactive: 12.1%
16,CC(C)Cc1ccc([C@H](C)C(=O)O)cc1,inactive: -4.49%
17,COC(=O)c1[nH]c2ccc(C)cc2c1NC(=O)NC1CCCCC1,inactive: -0.499%
18,N#CC1=C(N)N2C(=C(C#N)C1c1cccc(Br)c1)Nc1ccccc12 (configuration not stated),inactive: 9.3%
19,Cc1cc(NC(=O)c2ccc3c(c2)OCCO3)no1,inactive: 7.18%
20,O=C(/C=C/Nc1ccc(F)cc1Br)c1ccccc1,inactive: -5.49%
21,COc1ccc(C(=O)Nc2cc(C)c(NC(=O)c3ccccc3OC)cn2)cc1,inactive: -4.03%
22,C[C@H](NC(=O)N1CCn2c1nc1ccccc12)C(=O)NCC1CCCO1 (some centres not stated),inactive: 22.1%
23,O=C(C1CC1)N1N=C(c2ccc(Br)cc2)CC1(O)C(F)(F)F (configuration not stated),inactive: -1.28%
24,COc1ccc(Nc2oc(COc3ccccc3OC)nc2C#N)cc1,inactive: -1.64%

row,SMILES,"activity change, negative = cytotoxicity"
1,O=C(Nc1ccc(F)c(F)c1)C1CCCCC1,inactive: 2.12%
2,CN1C(=O)N(C)c2ccc(C=O)c3cccc1c23,inactive: 6.7%
3,COc1cccc(C2=CC(=O)C[C@H](c3ccc4c(c3)OCO4)C2)c1,inactive: -0.577%
4,Cc1ccc(C)c(S(=O)(=O)N2CCN(CC(=O)N3CCc4ccccc4C3)CC2)c1,inactive: 7.78%
5,CCn1c(SC(C)C)nnc1-c1c[nH]c2ccccc12,inactive: 4.25%
6,Cc1cc(=S)[nH]c2ccccc12,inactive: 5.57%
7,O=c1cc(C2CCCCC2)[nH]c(=O)[nH]1,inactive: 11.6%
8,O=c1cc(Cl)nc2ccccn12,inactive: 5.86%
9,CCN(C(=O)c1cccc(NC(=O)c2ccccc2)c1)C1CCCCC1,inactive: 1.08%
10,COc1cc2nc(N3CCN(C(=O)C4CCCO4)CC3)nc(N)c2cc1OC (configuration not stated),inactive: 1.52%
11,Cc1ccc(CNC(=O)C(=O)NCC2OCCN2S(=O)(=O)c2ccc(Cl)cc2)cc1 (configuration not stated),inactive: 12.9%
12,O=C(Nc1cc(Cl)ccc1Cl)C1Cc2ccccc2O/C1=N\O (configuration not stated),inactive: 8.17%
13,CCCn1c(C)cc(C(=O)CN2C(=O)c3ccccc3S2(=O)=O)c1C,inactive: 9.62%
14,Cc1ccc(-n2c(=O)c3c(c4cc(C)ccc4n3C)n(CC(=O)NCC3CCCO3)c2=O)cc1 (configuration not stated),inactive: 4.29%
15,CC1=C(C(=O)OCc2ccc3c(c2)OCO3)C(c2ccc(Cl)cc2)NC(=O)N1 (configuration not stated),inactive: -5.93%
16,Cc1cccn2c(=O)c(C=NCCO)c(NCc3ccco3)nc12,inactive: 4.6%
17,Cc1ccc(-n2cc(C(=O)c3ccccc3O)cn2)cc1,inactive: 1.39%
18,O=C1CCC(C(=O)N2CCCCCC2)CN1CCc1ccc(Cl)cc1 (configuration not stated),inactive: 5.72%
19,CC1(C)CC(=O)C(CC2=C(O)CC(C)(C)CC2=O)=C(O)C1,inactive: 2.82%
20,CCC(C)(C)NC(=O)C(c1ccc(F)cc1)N(CCOC)C(=O)CCC(=O)Nc1nccs1 (configuration not stated),inactive: -8.1%
21,Cc1sc2nc(SCC(=O)OC(C)C)n(C)c(=O)c2c1C,inactive: 5.98%
22,COCCn1c(SCc2ccc(C(=O)OC)o2)nnc1-c1c[nH]c2ccccc12,inactive: 5.54%
23,COCCNC(=O)C1CCC(CNS(=O)(=O)c2ccccc2)CC1 (configuration not stated),inactive: 6.32%
